Values of other authors as cited in patent publication US5637320A, “Controlled absorption naproxen formulation for once-daily administration” (Elan Corporation, PLC, priority 1990, dated 1997).

How the values were obtained:
[1] = generally, compared with administration as the free acid
[2] = test system: patients with rheumatoid arthritis; details: twenty-four patients with rheumatoid arthritis
[3] = test system: postpartum women; details: sixty postpartum women, oral
[4] = reportedly
[5] = by many regulatory agencies

Row | SMILES | peak plasma concentrations versus naproxen free acid [1] | plasma naproxen levels at which clinical response occurred [2] | plasma naproxen levels at which reduced pain intensity was demonstrated [3] [µg/mL] | Plasma naproxen concentrations required for anti-inflammatory or analgesic effects [4] [µg/mL] | toxicity [5]
1 | COc1ccc2cc([C@H](C)C(=O)O)ccc2c1 [naproxen sodium] | higher and are attained more rapidly |  |  |  | 
2 | COc1ccc2cc([C@H](C)C(=O)O)ccc2c1 [naproxen, (S)-6-methoxy-methyl-2-naphthaleneacetic acid] |  | above 50 μg/ml | 30 to 70 | 30 to 90 | acceptably non-toxic
